The source gives many values for each of these; only a part stands here.
Tested on: Paecilomyces variotti (ATCC 22319)
Test: Heat treatment of Paecilomyces variotti spores in ice tea with natamycin, visual growth
Assay type: cell-based
Parameters: key: growth (+); no growth (−)
Protocol: Commercially available ice tea (Lipton, peach flavor, non-carbonated, 1.5 L) was adjusted to high water hardness by adding 1 ml of a solution of 39 g CaCl2 and 27 g MgCl2 added to 934 g water. ⅓ of this ice tea preparation (the pH of which was 3.15) was left as-such, ⅓ of the preparation was enriched with 5 ppm natamycin and ⅓ of the preparation was enriched with 10 ppm natamycin. Samples of 5 ml were made from each preparation in 15 ml sterile plastic tubes. Of each preparation 8 samples were pre-heated to the desired pasteurization temperature using a water bath. Temperatures used were RT, 60, 65, 70, 75, 80, 85 and 90° C. When the desired temperature was reached, 100 μl of a 2500 spores/ml spore suspension of Aspergillus niger ATCC 9029AA was added to each tube. Subsequently, the samples were kept for 30 seconds at the temperature in question in the water bath. Next, the samples were cooled on ice to a temperature of 25° C. Samples were incubated at 25° C. and visually examined for growth (formation of mold flakes or turbidity) for two months. Additionally, samples were enumerated according to ISO protocol 21527-1.2008 on day 0 (before heat treatment) and day 1 (after heat treatment) to count immediate loss of viability. […] For the results, see Table 1. […] Example 1 was repeated however with Paecilomyces variotti (ATCC 22319, 1000 spores/ml) instead of Aspergillus niger.

Measured: growth (+) or no growth (−)

C[C@@H]1C/C=C/C=C/C=C/C=C/[C@H](O[C@@H]2O[C@H](C)[C@@H](O)[C@H](N)[C@@H]2O)C[C@@H]2O[C@](O)(C[C@@H](O)C[C@H]3O[C@@H]3/C=C/C(=O)O1)C[C@H](O)[C@H]2C(=O)O [natamycin]
−: T 70, natamycin 10 ppm, day 1 | T 70, natamycin 10 ppm, day 2 | T 70, natamycin 10 ppm, day 3 | T 70, natamycin 10 ppm, day 4 | T 70, natamycin 10 ppm, day 5 | T 70, natamycin 10 ppm, day 6 | T 70, natamycin 10 ppm, day 7 | T 70, natamycin 10 ppm, day 8 | T 75, natamycin 5 ppm, day 1 | T 75, natamycin 5 ppm, day 2 | T 75, natamycin 5 ppm, day 3 | T 75, natamycin 5 ppm, day 4 | T 75, natamycin 5 ppm, day 5 | T 75, natamycin 5 ppm, day 6 | T 75, natamycin 5 ppm, day 7 | T 75, natamycin 5 ppm, day 8 | T 75, natamycin 5 ppm, day 9 | T 75, natamycin 5 ppm, day 10 | T 75, natamycin 5 ppm, day 11 | T 75, natamycin 5 ppm, day 12 | T 75, natamycin 5 ppm, day 13 | T 75, natamycin 5 ppm, day 14 | T 75, natamycin 5 ppm, day 15 | T 75, natamycin 5 ppm, day 16 | T 75, natamycin 5 ppm, day 17 | T 75, natamycin 5 ppm, day 50 | T 75, natamycin 10 ppm, day 1 | T 75, natamycin 10 ppm, day 2 | T 75, natamycin 10 ppm, day 3 | T 75, natamycin 10 ppm, day 4 | T 75, natamycin 10 ppm, day 5 | T 75, natamycin 10 ppm, day 6 | T 75, natamycin 10 ppm, day 7 | T 75, natamycin 10 ppm, day 8 | T 75, natamycin 10 ppm, day 9 | T 75, natamycin 10 ppm, day 10 | T 75, natamycin 10 ppm, day 11 | T 75, natamycin 10 ppm, day 12 | T 75, natamycin 10 ppm, day 13 | T 75, natamycin 10 ppm, day 14 | T 75, natamycin 10 ppm, day 15 | T 75, natamycin 10 ppm, day 16 | T 75, natamycin 10 ppm, day 17 | T 75, natamycin 10 ppm, day 50 | T 80, natamycin 5 ppm, day 1 | T 80, natamycin 5 ppm, day 2 | T 80, natamycin 5 ppm, day 3 | T 80, natamycin 5 ppm, day 4 | T 80, natamycin 5 ppm, day 5 | T 80, natamycin 5 ppm, day 6 | T 80, natamycin 5 ppm, day 7 | T 80, natamycin 5 ppm, day 8 | T 80, natamycin 5 ppm, day 9 | T 80, natamycin 5 ppm, day 10 | T 80, natamycin 5 ppm, day 11 | T 80, natamycin 5 ppm, day 12 | T 80, natamycin 5 ppm, day 13 | T 80, natamycin 5 ppm, day 14 | T 80, natamycin 5 ppm, day 15 | T 80, natamycin 5 ppm, day 16 | T 80, natamycin 5 ppm, day 17 | T 80, natamycin 5 ppm, day 50 | T 80, natamycin 10 ppm, day 1 | T 80, natamycin 10 ppm, day 2 | T 80, natamycin 10 ppm, day 3 | T 80, natamycin 10 ppm, day 4 | T 80, natamycin 10 ppm, day 5 | T 80, natamycin 10 ppm, day 6 | T 80, natamycin 10 ppm, day 7 | T 80, natamycin 10 ppm, day 8 | T 80, natamycin 10 ppm, day 9 | T 80, natamycin 10 ppm, day 10 | T 80, natamycin 10 ppm, day 11 | T 80, natamycin 10 ppm, day 12 | T 80, natamycin 10 ppm, day 13 | T 80, natamycin 10 ppm, day 14 | T 80, natamycin 10 ppm, day 15 | T 80, natamycin 10 ppm, day 16 | T 80, natamycin 10 ppm, day 17 | T 80, natamycin 10 ppm, day 50 | T 85, natamycin 5 ppm, day 1 | T 85, natamycin 5 ppm, day 2 | T 85, natamycin 5 ppm, day 3 | T 85, natamycin 5 ppm, day 4 | T 85, natamycin 5 ppm, day 5 | T 85, natamycin 5 ppm, day 6 | T 85, natamycin 5 ppm, day 7 | T 85, natamycin 5 ppm, day 8 | T 85, natamycin 5 ppm, day 9 | T 85, natamycin 5 ppm, day 10 | T 85, natamycin 5 ppm, day 11 | T 85, natamycin 5 ppm, day 12 | T 85, natamycin 5 ppm, day 13 | T 85, natamycin 5 ppm, day 14
